# Data taken from PubChem BioAssay AID504444 (National Center for Advancing Translational Sciences (NCATS), 2011).
# Out of some 360,000 compounds screened, about 7,500 (2.1%) were called active. The inconclusive results got no clear call from the source; some entries with a clear call stand among them for comparison. Calls come from the whole dose curve; as a rule, active = well fitted inhibition curve with a large enough effect; inconclusive = small, poorly fitted or top-dose-only effect, or effect the other way; inactive = flat fitted curve, though single readings scatter. Potencies beside an inconclusive call are fits to weak or partial responses and may not hold up.
# Assay: Nrf2 qHTS screen for inhibitors; note: nearly all actives have a fitted effect of over 60% in size
# Conditions: A549 ARE-Fluc reporter, luciferase luminescence, 18-24 h; activity change, negative = inhibition: at 46 µM (top of the series)
# Summary of the method: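 Two sequential reads on A549 ARE_Fluc cells exposed to compound for 18-24 h: a CellTiter-Fluor fluorescence read for viability, then a luciferase luminescence read for Nrf2/ARE activity.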
# % is set by controls: 0 for no effect and ±100 for the full control effect; potency is the fitted concentration of half-maximal effect.
Structure (SMILES),Potency,"activity change, negative = inhibition"
CC1CCCCC1NC(=O)CN1CCN(S(=O)(=O)c2ccc(Br)s2)CC1 (centres undefined),"inconclusive: 25.9 µM [falling, partial curve, poor fit]",–
CCC1=Nc2cc(C(=O)NC3CCCC3)ccc2Sc2ccc(Br)cc21,"inconclusive: 20.6 µM [falling, single point]",–
COc1cccc(N2CCN(C(=O)c3cc(C)oc3C)CC2)c1,–,inactive: -15.8%
C=CCn1cccc(C(=O)Nc2ccc(C)c(Cl)c2)c1=O,"inconclusive: 2.91 µM [activator, full curve, poor fit]",–
COc1ccc2[nH]c(=O)c(CNc3cccc(C)c3)cc2c1,"inconclusive: 20.6 µM [falling, single point]",–
CC1Cc2cc(S(=O)(=O)NCc3ccccc3Cl)ccc2N1C(=O)C1CCC1 (centres undefined),active: 25.9 µM,–
Cn1c(-c2ccccc2)c(CCO)c2ccccc21,–,inactive: 5.77%
CC1CCCCN1C(=O)CCn1c(=O)oc2ccccc21 (centres undefined),"inconclusive: 1.84 µM [activator, partial curve]",–
N=c1c2c(ncn1Cc1ccco1)Oc1ccc3ccccc3c1C2c1ccccc1 (centres undefined),"inconclusive: 29.1 µM [falling, single point]",–
CCCN(Cc1nnc(-c2cccs2)o1)C(=O)CN1C(=O)NC2(CCCCC2C)C1=O (centres undefined),"inconclusive: 0.651 µM [falling, full curve, poor fit]",–
CCN(C(=O)c1cc2c(s1)-c1ccccc1OC2)c1cc(Cl)ccc1OC,"inconclusive: 16.4 µM [falling, single point]",–
Cc1ccccc1NS(=O)(=O)c1nnc(NC(=O)c2ccccc2C)s1,"inconclusive: 4.11 µM [activator, full curve]",–
CCCCC(c1nnnn1CC1CCCO1)N1CCN(c2nc3ccccc3s2)CC1 (centres undefined),"inconclusive: 13 µM [falling, partial curve, poor fit]",–
Cc1ccc(C(=O)N2CCc3ccccc32)cc1C,"inconclusive: 23.1 µM [activator, partial curve, poor fit]",–
Cc1cccc(N2CCN(C(=O)C3CCCN(S(=O)(=O)c4cnc[nH]4)C3)CC2C)c1 (centres undefined),"inconclusive: 0.13 µM [falling, partial curve, poor fit]",–
CC1CCc2c(sc(NC(=O)c3nc4ncccn4n3)c2C#N)C1 (centres undefined),"inconclusive: 2.06 µM [activator, full curve]",–
CCOC(=O)Cn1nnnc1CN(Cc1ccccc1)Cc1cc2cc(CC)ccc2[nH]c1=O,"inconclusive: 29.1 µM [falling, single point]",–
Cc1cc(C)n2nc(SCC(=O)NC3CCCCC3C)nc2n1 (centres undefined),"inconclusive: 20.6 µM [activator, partial curve]",–
Cn1c(N=Nc2ccccc2)nc2ccccc21,"inconclusive: 29.1 µM [falling, single point]",–
O=C(NCCc1ccccn1)c1cc(-c2cccc3ccccc23)nc2ccccc12,"inconclusive: 10.3 µM [falling, partial curve]",–
Nc1cccc2nsnc12,–,inactive: -9.06%
COc1ccc([N+](=O)[O-])cc1C(=O)Nc1ccc(Cc2ccncc2)cc1,–,inactive: 3.98%
COc1cccc(CN2CCc3nc(SCC(=O)Nc4ccccc4)[nH]c(=O)c3C2)c1,–,inactive: -1.53%

Structure (SMILES),Potency,"activity change, negative = inhibition"
Cc1ccc(C)c(NC(=O)COc2coc(CN3CCc4ccccc43)cc2=O)c1,"inconclusive: 18.4 µM [falling, single point]",–
O=C(CN1C(=O)/C(=C/c2cccc(Cl)c2)SC1=S)NC1C=CS(=O)(=O)C1 (centres undefined),–,inactive: 10.6%
COc1ccc(CNc2nc3nc(C)c(Cl)c(C)n3n2)cc1,"inconclusive: 11.6 µM [activator, partial curve, poor fit]",–
OC(COCC(F)(F)C(F)(F)C(F)(F)C(F)F)Cn1c2ccccc2c2ccccc21 (centres undefined),"inconclusive: 16.4 µM [falling, single point]",–
O=C1C=CCC(/C=C/c2ccccc2)O1 (centres undefined),active: 2.59 µM,–
CC1CCCN(CCCOc2ccc(Br)cc2Cl)C1 (centres undefined),"inconclusive: 29.1 µM [activator, single point]",–
CC(C)(C)c1ccc(C(=O)N2CCC(C(=O)c3ccccc3)CC2)cc1,"inconclusive: 29.1 µM [falling, single point]",–
CC(C)n1c(=S)[nH]c2scc(-c3cccs3)c2c1=O,"inconclusive: 29.1 µM [falling, single point]",–
CC1CN(c2nc3c(c(=O)n(Cc4ccc(Cl)c(Cl)c4)c(=O)n3C)n2C)CC(C)O1 (centres undefined),active: 23.1 µM,–
CC(C)CCNc1nc2ccccc2nc1NS(=O)(=O)c1cccs1,"inconclusive: 20.6 µM [falling, partial curve, poor fit]",–
C=CCSc1nncn1/N=C/c1ccc(OC)cc1,"inconclusive: 14.6 µM [activator, partial curve, poor fit]",–
CCc1c(C)nc2nncn2c1Nc1ccc(C(C)C)cc1,"inconclusive: 29.1 µM [falling, single point]",–
CCCCCCc1cc2cc(S(=O)(=O)c3ccc(Cl)cc3)c(=O)oc2cc1O,"inconclusive: 25.9 µM [falling, single point]",–
Cc1cccc(N2CC(C)Cn3c2nc2c3c(=O)n(CC(=O)OCc3ccccc3)c(=O)n2C)c1 (centres undefined),"inconclusive: 29.1 µM [falling, single point]",–
O=C(c1ccco1)N1CCN(c2nc(-c3ccc(F)cc3)cs2)CC1,"inconclusive: 29.1 µM [falling, single point]",–
COc1ccc(/C=C/C(=O)NNC(=O)c2ccncc2)c(OC)c1,–,inactive: 6.8%
O=S(=O)(Nc1nc2ccc(Cl)cc2s1)c1cccs1,"inconclusive: 23.1 µM [activator, single point]",–
COc1ccc(CCNC(=O)c2cc3c(=O)n4ccccc4nc3n(C3CCCCC3)c2=N)cc1,–,inactive: -13.8%
Cc1cc(C(=O)N/N=C\C(Br)=C\c2ccccc2)c(C)o1,"inconclusive: 6.51 µM [activator, partial curve]",–
CCc1ccc(NC(=O)Cn2c3ncccc3c(=O)n2-c2ccc(C)c(C)c2)cc1,"inconclusive: 18.4 µM [falling, single point]",–
Cc1ccc(NC(=O)/C(C#N)=C/c2cc(C)n(-c3ccc(F)cc3)c2C)cc1C,–,inactive: 12.3%
O=C(c1ccc2c(c1)N(Cc1ccccc1F)C(=O)c1ccccc1S2=O)N1CCN(c2ccccc2)CC1 (centres undefined),"inconclusive: 20.6 µM [falling, single point]",–
OCCNc1nc(Nc2ccc(O)cc2)nc2ccccc12,"inconclusive: 3.66 µM [falling, partial curve]",–

# Looked up above.
# For activity change, negative = inhibition, COc1ccc(CCNC(=O)c2cc3c(=O)n4ccccc4nc3n(C3CCCCC3)c2=N)cc1 has inactive: -13.8%
# For Potency, CC1CCCN(CCCOc2ccc(Br)cc2Cl)C1 (centres undefined) has inconclusive: 29.1 µM [activator, single point]

# Next part.

Structure (SMILES),Potency,"activity change, negative = inhibition"
O=C(NCc1ccc(F)cc1F)c1cc(COc2c(F)cccc2F)on1,–,inactive: 5.69%
CN(C)c1ccnc2sc(C(=O)c3ccccc3)c(N)c12,"inconclusive: 13 µM [activator, partial curve]",–
COc1ccc(NC(=S)Nc2ccc3snnc3c2)cc1,"inconclusive: 14.6 µM [activator, partial curve, poor fit]",–
O=C(CN(C(=O)c1ccc(Cl)cc1)C1CCCCC1)Nc1ccc(Cl)c([N+](=O)[O-])c1,"inconclusive: 29.1 µM [falling, single point]",–
Fc1ccc(CNc2ccc(CNc3ncn[nH]3)cc2)cc1,"inconclusive: 29.1 µM [activator, partial curve, poor fit]",–
Cc1cnc(NC(=O)c2ccc(Cl)nc2)s1,"inconclusive: 6.51 µM [activator, partial curve]",–
COc1ccc(N2CCN(C(=O)CCn3c(=O)c4cccn4c4cccnc43)CC2)cc1,"inconclusive: 29.1 µM [activator, single point]",–
COCCn1c(=O)[nH]c2cc(C(=O)NCCN3CCN(c4ccccc4)CC3)ccc2c1=O,–,inactive: 0.456%
O=C(CSc1nc2ccc([N+](=O)[O-])cc2[nH]1)NC1CCCCCC1,active: 13 µM,–
O=C(Nc1cccc(NC(=O)c2cccs2)c1)c1cccnc1,–,inactive: 0.501%
Cc1cc(NC(=O)/C=C/c2ccc(F)cc2)n(-c2nc3ccccc3[nH]2)n1,"inconclusive: 23.1 µM [falling, single point]",–
COC(=O)CNC(=O)C1(C)C=CCN1C(=O)c1ccccc1 (centres undefined),"inconclusive: 16.4 µM [activator, single point]",–
O=C1NC(c2cccc(OCc3ccccc3)c2)Nc2ccccc21 (centres undefined),–,inactive: 8.58%
S=C1NC[C@H](CC2CCCCC2)N1CC1CCCCC1,"inconclusive: 20.6 µM [falling, single point]",–
COc1cccc(OCCNC(=O)c2ccccc2Sc2ccccc2C#N)c1,"inconclusive: 20.6 µM [falling, single point]",–
CC1=CN2C(=N)/C(=C/c3ccc([N+](=O)[O-])o3)C(=O)N=C2S1,–,inactive: 4.46%
COC(=O)c1cccc(NC(=O)CSc2nc3cccnc3n2C)c1,"inconclusive: 13 µM [falling, partial curve, poor fit]",–
CCOc1ccc(C(C(=O)NCC2CCCO2)N(C(=O)c2snc(C(N)=O)c2N)c2ccc3c(c2)OCCO3)cc1 (centres undefined),–,inactive: -20.3%
CCN1CCN(CCNC(=O)CCCn2nc(C)c3c(C)n(-c4ccc(C)cc4)nc3c2=O)CC1,"inconclusive: 5.17 µM [activator, partial curve, poor fit]",–
Cc1cc2ccccn2c1C(=O)c1ccc([N+](=O)[O-])cc1[N+](=O)[O-],–,inactive: -9.81%
CC1(C)CC(NCc2ccc3c(c2)OCO3)CCO1 (centres undefined),–,inactive: 13.7%
O=C1CN(C(=O)CNCc2ccccc2)c2ccccc2N1,"inconclusive: 1.16 µM [activator, full curve, poor fit]",–
CCc1nc2c(cnn2-c2ccc(F)cc2)c(=O)n1-c1ccc(N2CCC(C)CC2)cc1,"inconclusive: 3.26 µM [falling, single point]",–
